# This is one part of the list.
# Target: T1, OsSMF1 (Oryza sativa, UniProt Q6ZLB0 1-436)
# T1 sequence: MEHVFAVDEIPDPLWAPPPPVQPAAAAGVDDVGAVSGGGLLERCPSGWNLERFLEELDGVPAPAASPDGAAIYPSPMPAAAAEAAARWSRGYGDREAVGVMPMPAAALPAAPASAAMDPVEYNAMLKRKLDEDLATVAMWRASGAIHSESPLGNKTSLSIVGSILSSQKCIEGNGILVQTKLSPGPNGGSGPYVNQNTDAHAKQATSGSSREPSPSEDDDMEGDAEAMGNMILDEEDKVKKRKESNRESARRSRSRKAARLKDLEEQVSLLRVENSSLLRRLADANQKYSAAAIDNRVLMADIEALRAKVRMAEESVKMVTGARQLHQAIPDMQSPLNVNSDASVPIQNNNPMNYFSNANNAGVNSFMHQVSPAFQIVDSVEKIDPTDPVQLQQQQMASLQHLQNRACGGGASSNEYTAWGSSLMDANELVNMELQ
# Assay: protein-binding microarray (RPBM); PBS, 2% BSA, 51.3 ng/ul salmon testes DNA, 50 uM zinc acetate, 200 nM TF, 25 C, 1 h; high values mean tight binding
# Conditions: protein: recombinant; tags: N-terminal polyhistidine and DsRed monomer fusion (pET32a); chain copies: 2; label: CyDye5-dUTP incorporated in the synthesized complementary strand; 3' TTTTT single-stranded linker to array surface; dsDNA, one strand shown
# Summary of the method: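 Binding signal is reported as fluorescence intensity per feature (arbitrary units) from an Axon 4000B scanner. Incubation used 200 nM of each Ni–NTA-purified, N-terminally polyhistidine- and DsRed-fused transcription factor from E. coli BL21-CodonPlus on a double-stranded custom Agilent array for 1 h at 25 °C, with 50 µM zinc acetate in the buffer, followed by washing.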
row,Sequence,binding signal
1,AATCACGCAAGCCTGATGCATCACATGCTCCAGTTAATCACGGAGTCACCTAGTGCAG,3860 fluorescence intensity (a.u.)
2,GGCATTATGACACGCATCTATTCTGTAATTGATGCTCCTGCGGAGTCACCTAGTGCAG,4900 fluorescence intensity (a.u.)
3,CCGCCATATCCGCTCTCCGCGCGTCACCTCGTGTCGCGTCCGGAGTCACCTAGTGCAG,4070 fluorescence intensity (a.u.)
4,GGCAATGCCTCGCACCACGGACCTGGAACGATGGCTTTGGCGGAGTCACCTAGTGCAG,3470 fluorescence intensity (a.u.)
5,CCGCATGTGACCACCGGTGTTGTTGTTGGTCACATCTCTACGGAGTCACCTAGTGCAG,3140 fluorescence intensity (a.u.)
6,GCGGCGCTGCCATGCCAACACGCGGCGCCAGCGACCAGCGCGGAGTCACCTAGTGCAG,3840 fluorescence intensity (a.u.)
7,GCATGTCATAATCTTGAGATAACGGTTATGCAACTGTTTACGGAGTCACCTAGTGCAG,22000 fluorescence intensity (a.u.)
8,GTACATGCGTGTGCCACTTCCTCTATTACGAATGCGTGCACGGAGTCACCTAGTGCAG,21400 fluorescence intensity (a.u.)
9,TTCTATCCATAGGATTTTAGGTGATATGGCACTCAAATCGCGGAGTCACCTAGTGCAG,4620 fluorescence intensity (a.u.)
10,CAGCAGCGCAATGCCTCGCGCTGCTCTCCGTCGCCGCCGCCGGAGTCACCTAGTGCAG,7600 fluorescence intensity (a.u.)
11,CAAACGCTCTCAAGCCGCCAAGTGGCGCTCTAATAAAATACGGAGTCACCTAGTGCAG,3580 fluorescence intensity (a.u.)
12,TAGCCGCCTCATCTCGCCCATTCGCTTCCCCGTCATAAAGCGGAGTCACCTAGTGCAG,3190 fluorescence intensity (a.u.)
13,GTAAGAGGGAGGTAAAATAGACTCACGTGAGGAGTCAACACGGAGTCACCTAGTGCAG,3510 fluorescence intensity (a.u.)
14,GAACCCACCCCGCGTCCCGGACCACGTCCTGCTCGCCTGGCGGAGTCACCTAGTGCAG,3390 fluorescence intensity (a.u.)
15,TCGTGTGTGCGCAACTGTTTATATGCACGTGTAGCTGCTTCGGAGTCACCTAGTGCAG,3420 fluorescence intensity (a.u.)
16,TAGGTAGGTAACCGATCGCAACGTTTCATGACGGAGACAGCGGAGTCACCTAGTGCAG,3380 fluorescence intensity (a.u.)
17,CAAACCAACTTTATATTCTTGTCTAACATCGGTTTAGAAACGGAGTCACCTAGTGCAG,5060 fluorescence intensity (a.u.)
18,GGCACCACCGTCACCACGTCACGGGGCAAATCGGATGCCTCGGAGTCACCTAGTGCAG,13600 fluorescence intensity (a.u.)
19,TTCTAACTTCACCTAGCCGTGTTGTGCAGCTTGAACTACCCGGAGTCACCTAGTGCAG,18600 fluorescence intensity (a.u.)
20,TTTATTTTGGACCAAATAGTATATATTATATCTTATATTACGGAGTCACCTAGTGCAG,6700 fluorescence intensity (a.u.)
21,AAGCGTGGCGACGACAGGTGATGAGGGAACTCATTGAACCCGGAGTCACCTAGTGCAG,7990 fluorescence intensity (a.u.)
22,CCAGCCGGCGAGGAAGACGGCGAGGGAGGCGGCCATGACGCGGAGTCACCTAGTGCAG,3330 fluorescence intensity (a.u.)
23,CTGTGAGAGCGAACGTGGTATGATGTAATCGACTTTCTTGCGGAGTCACCTAGTGCAG,3650 fluorescence intensity (a.u.)
24,CTTACATAAGGGGAATATAATATATACTTACTACTTGATGCGGAGTCACCTAGTGCAG,3240 fluorescence intensity (a.u.)
25,CTGAGAGGAGGAGGTGGCGGCGGAGCGGCTTGTGCTCGACCGGAGTCACCTAGTGCAG,17400 fluorescence intensity (a.u.)
26,GTGGTCACCTCTGGACAGCATGAAGCGTACAGGCTACAGCCGGAGTCACCTAGTGCAG,7410 fluorescence intensity (a.u.)
27,ATCGGGCTTAGCGTCTCCACTCGTGTTCGTGTTGGTTCCTCGGAGTCACCTAGTGCAG,3360 fluorescence intensity (a.u.)

# Fetched one by one from the entries so far, four records:
row,Sequence,binding signal
10,CAGCAGCGCAATGCCTCGCGCTGCTCTCCGTCGCCGCCGCCGGAGTCACCTAGTGCAG,7600 fluorescence intensity (a.u.)
16,TAGGTAGGTAACCGATCGCAACGTTTCATGACGGAGACAGCGGAGTCACCTAGTGCAG,3380 fluorescence intensity (a.u.)
7,GCATGTCATAATCTTGAGATAACGGTTATGCAACTGTTTACGGAGTCACCTAGTGCAG,22000 fluorescence intensity (a.u.)
27,ATCGGGCTTAGCGTCTCCACTCGTGTTCGTGTTGGTTCCTCGGAGTCACCTAGTGCAG,3360 fluorescence intensity (a.u.)

# (cont.)

row,Sequence,binding signal
1,CATATTCCAGACTTCCAGTCATGTGTCCAGTCCAATTGACCGGAGTCACCTAGTGCAG,3380 fluorescence intensity (a.u.)
2,TCGAATTCCGATGGCGCCCAGCATACACATCAGCCACCAGCGGAGTCACCTAGTGCAG,6440 fluorescence intensity (a.u.)
3,GTGACATAGTTTTGCGGAGAGAGTATCTGGTTTTCCTGTTCGGAGTCACCTAGTGCAG,26600 fluorescence intensity (a.u.)
4,CCCGCCACCAAGCACCTATAGTCTCCCGTTGCTGTCAAAGCGGAGTCACCTAGTGCAG,4210 fluorescence intensity (a.u.)
5,CATGCAAGGGGTGACGTCATGACGAGATACGGAGGGTGGGCGGAGTCACCTAGTGCAG,16100 fluorescence intensity (a.u.)
6,CCCAGCCCGCTCCACGTCGCCGCGCGCTTCCCCTCCTACGCGGAGTCACCTAGTGCAG,5540 fluorescence intensity (a.u.)
7,TTCCTCGACAAGATTTTCATGTGGCGTGGAGCGACAGAGACGGAGTCACCTAGTGCAG,4080 fluorescence intensity (a.u.)
8,TCTCCATAAGAGCACCCACCAACTCAGCCTCTCCTCCCATCGGAGTCACCTAGTGCAG,3340 fluorescence intensity (a.u.)
9,GGCGATTAGCCAATTGCAGCCTTGGCACCCACGGTAATTCCGGAGTCACCTAGTGCAG,3690 fluorescence intensity (a.u.)
10,GACTAGAGCATACTGTCATAAGGTATTGTGTTTGCTTGTCCGGAGTCACCTAGTGCAG,4090 fluorescence intensity (a.u.)
11,GGCCCTCTCAAAATTCTCAATCTGCCACCGCATCAACGAGCGGAGTCACCTAGTGCAG,3140 fluorescence intensity (a.u.)
12,AATTCTTTCTTGCAAAGAACCCATTTCTGTACTAAGAGTACGGAGTCACCTAGTGCAG,27600 fluorescence intensity (a.u.)
13,GACGGAGGGAGTACAGGTTATTTCAGGTTACAAAAGTTTGCGGAGTCACCTAGTGCAG,3270 fluorescence intensity (a.u.)
14,CGGTCCCACCTGTCATACACACATTACGTCTTGGAGTCAGCGGAGTCACCTAGTGCAG,4220 fluorescence intensity (a.u.)
15,CTTCACCGGCGGCGAGGAGCACGTCACCGGCGGCGAGCACCGGAGTCACCTAGTGCAG,4120 fluorescence intensity (a.u.)
16,AGTAATACTGTACAACGTAGTGGTAGCAGGAGCCGGAAGGCGGAGTCACCTAGTGCAG,4190 fluorescence intensity (a.u.)
17,ATATGTGGGTCTCATGCTGACTCATCCGCCACGTCAGATACGGAGTCACCTAGTGCAG,42600 fluorescence intensity (a.u.)
18,CTGAGTGTGTTGCCTGTAGATATCCATGGGCAACCCACATCGGAGTCACCTAGTGCAG,3350 fluorescence intensity (a.u.)
19,TATCTTCCAAGTAGGAAAATATGCTGACATGGATCTCTTGCGGAGTCACCTAGTGCAG,5860 fluorescence intensity (a.u.)
20,AAGCGGAACGAATGGTCGGAAACCGAGCGGACAAAACAGCCGGAGTCACCTAGTGCAG,21700 fluorescence intensity (a.u.)
21,GAAGCCAATTTTAAGTGGTATATAAGAGAGCCGGTTAATTCGGAGTCACCTAGTGCAG,15100 fluorescence intensity (a.u.)
22,CCATTTGTGCCTGGTCGACATAACACTTCCCAACATCTCACGGAGTCACCTAGTGCAG,3620 fluorescence intensity (a.u.)
23,GAGAATGCCAGAGCTTACAGTATCTCAATTTATCTAGGAACGGAGTCACCTAGTGCAG,4090 fluorescence intensity (a.u.)
24,TGAACTACTGCTGCTGCTACTCCATGTCATTTTCTCCCATCGGAGTCACCTAGTGCAG,3370 fluorescence intensity (a.u.)
25,CATCTTCTCCAATTGATGTGGCTCTCTCATTTGACCATTTCGGAGTCACCTAGTGCAG,4260 fluorescence intensity (a.u.)
26,ACCCCGCCAAAAGCTCACCTCGTCGTCGTCGTCGTCGTATCGGAGTCACCTAGTGCAG,3190 fluorescence intensity (a.u.)
27,ATGCTTTGAATTCCAACTCATCATCGACCCTTATGTTGCACGGAGTCACCTAGTGCAG,6670 fluorescence intensity (a.u.)
